Data from the supplement of paper PMC3334620.
Whole data set: some 33,000 sequences, median “E-score (-0.5 to 0.5)” near -8e-05, cut for the highest 2% near 0.23. This is one part of the list.

Target: T1, Nrg2 (UniProt P38082)
T1 sequence: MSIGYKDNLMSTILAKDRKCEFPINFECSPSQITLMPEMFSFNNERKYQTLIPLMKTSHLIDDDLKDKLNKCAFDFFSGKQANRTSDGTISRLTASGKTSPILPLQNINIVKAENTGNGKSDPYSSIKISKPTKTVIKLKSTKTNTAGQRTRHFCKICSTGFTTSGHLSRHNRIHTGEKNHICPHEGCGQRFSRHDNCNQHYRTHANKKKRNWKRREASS
Test: PBM E-score (8-mer binding enrichment) (E-score (-0.5 to 0.5)); higher = stronger / more preferred TF binding
Details: protein concentration: 100 nM; construct: GST-full length
How it was run: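 Yeast transcription factors, full-length or as DNA-binding domains, were expressed with a GST tag using PURExpress in vitro transcription/translation. At about 100-200 nM they were applied to universal all-10-mer Agilent arrays, double-stranded by primer extension on fresh or once-stripped slides. Fluorescent anti-GST detected bound protein, and masliner normalised the scans. E-scores for ungapped eight-base words, pooled with reverse complements, came from the Universal PBM Analysis Suite.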

Row | Sequence | PBM E-score
1 | AGGAATAT | 0.101
2 | ATTAGGCA | -0.035
3 | CGAGACGA | -0.0266
4 | GGCGCCCC | -0.0484
5 | AAACCGGC | 0.00992
6 | CCTATCAC | -0.00258
7 | GCTTGCAC | -0.0351
8 | GTGTATTA | 0.233
9 | GGGAGAAA | -0.169
10 | CCGGCTAG | -0.289
11 | GGCCACCC | -0.0452
12 | CAGGTTGC | 0.0874
13 | AGTGCACT | 0.0692
14 | AGGCTGCA | -0.185
15 | ACTGAACT | -0.00128
16 | GACCTATA | 0.134
17 | GGACAGCC | 0.0643
18 | GGCCGACA | -0.12
19 | CGCAGCCC | -0.0608
20 | GCGCTAGC | -0.213
21 | AACCCTCA | -0.0647
22 | CGGCTTCC | -0.138
23 | AGCGGCCG | 0.0314
24 | CGGCTGAA | -0.00897

Nos. 3–4 of the list above:
Row | Sequence | PBM E-score
3 | CGAGACGA | -0.0266
4 | GGCGCCCC | -0.0484

(list continues)

Row | Sequence | PBM E-score
25 | ATCAATCA | 0.0745
26 | CACATTGG | 0.0656
27 | CCTTCGGC | -0.249
28 | GCAAGACC | -0.0464
29 | CCGTGTGC | -0.065
30 | TAGGTTGA | 0.0344
31 | ATCTGGAG | -0.0376
32 | GATCCATA | 0.1
33 | ACTGACTC | -0.0876
34 | GAACGCCA | -0.00659
35 | TGCTTGAA | 0.0462
36 | ACCCGGTA | 0.0638
37 | CTGGGTTA | -0.0413
38 | CAAGTGAC | -0.021
39 | CTGAGGTC | -0.0556
40 | CCTCTTGC | -0.219
41 | GAGGTTCC | 0.0217
42 | AAAGCTAT | -0.00544
43 | CTGGAAGC | -0.261
44 | AATGCACC | 0.0152
45 | CATAGAGC | -0.132
46 | AATTAACC | 0.0735
47 | ATACGACA | 0.0872
48 | ATAAGAAT | 0.135

3 records drawn at random from the list so far, as already listed:
Row | Sequence | PBM E-score
34 | GAACGCCA | -0.00659
43 | CTGGAAGC | -0.261
25 | ATCAATCA | 0.0745

The listing continues.

Row | Sequence | PBM E-score
49 | AGCAACGC | 0.0424
50 | AAAGGCCA | 0.006
51 | ACCAGTAA | 0.0806
52 | ACATTACA | -0.0449
53 | AAACTGTG | 0.198
54 | GGCCTCAC | -0.0963
55 | AGGCGCTC | -0.143
56 | GATGACAA | 0.186
57 | GCGAACAC | 0.0247
58 | TAACTCAA | 0.0586
59 | CCTTGCAG | -0.0165
60 | ATATGCGA | 0.123
61 | ATCTGCTG | -0.0833
62 | CCAGGGGC | 0.0624
63 | CTCCCCCA | -0.408
64 | CTCACCTC | 0.0434
65 | CCTCGGGC | -0.0765
66 | AACGACGG | 0.106
67 | CGCGAGTA | 0.15
68 | ACGGAGGA | -0.204
69 | CCACATTA | -0.0108
70 | CATTGTGA | 0.156
71 | ACCAGACA | -0.166
72 | CTAGTCGA | -0.0659

Row | Sequence | PBM E-score
73 | GACCATGA | 0.0982
74 | CTGAACCA | 2e-05
75 | TGAATCCA | 0.122
76 | GTCCAAAA | 0.0308
77 | AATCGTGC | 0.138
78 | CAACGAGC | -0.0488
79 | AAAAAGTC | 0.00456
80 | AACGACAT | 0.111
81 | TGCAGACA | 0.121
82 | CTTTCAGA | 0.0761
83 | AAGGCTGC | -0.224
84 | CGACGGCG | -0.0449
85 | CGCCAATA | 0.111
86 | ACTTACCT | -0.159
87 | AATGCCTA | -0.162
88 | GAAGTAAA | 0.00087
89 | TCATGGGA | -0.0411
90 | AGTGAGAC | -0.103
91 | CTAGGCGC | -0.0811
92 | CGAGTCAG | -0.0915
93 | CTATACCA | -0.0415
94 | AACTTGAT | 0.139
